From patent publication US11780893B2, “Kv1.3 blockers” (Zealand Pharma A/S, priority 2019, dated 2023)
Some results were stated once for a whole list of compounds, not compound by compound. Bridge positions count the residues as written; N and C are the ends. Square brackets hold non-standard residues; d marks the D form. Peptide text beside a SMILES is read from it. Nle = CCCC[C@H](N)C(=O)O

Chains of the proteins cited; added tags and fusions are not shown.
UniProt P22001, whole entry: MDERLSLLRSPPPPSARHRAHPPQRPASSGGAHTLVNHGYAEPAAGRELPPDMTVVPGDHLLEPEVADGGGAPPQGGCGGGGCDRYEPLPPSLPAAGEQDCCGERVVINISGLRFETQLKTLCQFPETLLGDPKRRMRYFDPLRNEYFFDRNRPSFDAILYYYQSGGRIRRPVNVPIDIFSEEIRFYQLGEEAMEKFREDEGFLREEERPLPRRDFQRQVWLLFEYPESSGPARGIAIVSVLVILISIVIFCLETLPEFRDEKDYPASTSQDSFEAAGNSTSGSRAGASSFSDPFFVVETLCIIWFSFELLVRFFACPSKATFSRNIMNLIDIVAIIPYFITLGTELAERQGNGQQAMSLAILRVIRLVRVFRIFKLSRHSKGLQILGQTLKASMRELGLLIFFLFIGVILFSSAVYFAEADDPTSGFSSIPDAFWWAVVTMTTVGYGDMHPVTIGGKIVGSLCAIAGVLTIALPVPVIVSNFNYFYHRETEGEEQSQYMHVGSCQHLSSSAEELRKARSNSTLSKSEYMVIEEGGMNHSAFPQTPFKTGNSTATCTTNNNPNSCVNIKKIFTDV
UniProt Q09470, whole entry: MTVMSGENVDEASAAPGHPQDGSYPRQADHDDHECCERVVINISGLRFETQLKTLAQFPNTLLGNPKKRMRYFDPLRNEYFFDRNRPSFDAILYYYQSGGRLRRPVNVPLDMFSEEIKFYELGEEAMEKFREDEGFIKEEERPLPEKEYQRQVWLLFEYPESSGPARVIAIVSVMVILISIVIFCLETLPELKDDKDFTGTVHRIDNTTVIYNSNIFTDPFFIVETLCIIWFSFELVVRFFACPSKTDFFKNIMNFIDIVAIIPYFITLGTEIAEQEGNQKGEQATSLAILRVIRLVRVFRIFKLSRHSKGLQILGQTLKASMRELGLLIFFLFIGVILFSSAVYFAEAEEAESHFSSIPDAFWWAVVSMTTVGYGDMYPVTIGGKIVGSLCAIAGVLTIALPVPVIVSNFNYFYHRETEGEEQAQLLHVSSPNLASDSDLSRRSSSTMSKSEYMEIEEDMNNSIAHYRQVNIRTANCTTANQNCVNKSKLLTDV
UniProt P16389, whole entry: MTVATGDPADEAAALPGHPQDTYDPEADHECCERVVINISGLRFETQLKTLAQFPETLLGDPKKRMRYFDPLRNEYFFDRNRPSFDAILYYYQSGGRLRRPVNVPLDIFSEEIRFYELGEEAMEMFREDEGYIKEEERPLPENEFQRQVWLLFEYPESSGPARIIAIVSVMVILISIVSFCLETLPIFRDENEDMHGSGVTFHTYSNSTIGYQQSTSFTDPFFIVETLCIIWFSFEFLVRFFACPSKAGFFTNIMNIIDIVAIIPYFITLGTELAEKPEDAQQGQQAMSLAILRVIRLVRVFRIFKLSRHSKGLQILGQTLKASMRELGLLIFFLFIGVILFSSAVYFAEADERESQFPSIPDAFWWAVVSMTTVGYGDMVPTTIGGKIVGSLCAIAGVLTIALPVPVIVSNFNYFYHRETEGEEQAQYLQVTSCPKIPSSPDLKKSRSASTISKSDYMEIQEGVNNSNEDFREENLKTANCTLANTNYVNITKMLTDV
UniProt P17658, whole entry: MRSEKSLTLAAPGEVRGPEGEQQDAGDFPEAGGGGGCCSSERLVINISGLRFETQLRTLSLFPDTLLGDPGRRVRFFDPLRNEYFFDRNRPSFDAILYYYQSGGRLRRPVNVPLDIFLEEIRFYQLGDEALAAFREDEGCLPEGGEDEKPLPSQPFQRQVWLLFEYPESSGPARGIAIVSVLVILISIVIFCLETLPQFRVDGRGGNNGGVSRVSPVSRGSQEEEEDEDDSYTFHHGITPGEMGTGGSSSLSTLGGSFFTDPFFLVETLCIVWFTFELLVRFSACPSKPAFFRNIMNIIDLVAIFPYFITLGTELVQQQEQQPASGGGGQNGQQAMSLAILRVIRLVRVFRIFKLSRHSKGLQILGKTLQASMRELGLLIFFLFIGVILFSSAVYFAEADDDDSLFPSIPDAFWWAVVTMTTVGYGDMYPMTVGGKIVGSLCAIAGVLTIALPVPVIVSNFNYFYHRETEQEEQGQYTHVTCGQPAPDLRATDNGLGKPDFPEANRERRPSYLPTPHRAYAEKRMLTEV

What was measured:
Assay type in all cases: cell-based
[1] = target: T1, human Kv1.3 voltage-gated K+ channel (Homo sapiens, UniProt P22001)
T1 construct: host or cells: CHO-DUKX

Kv1.1 = target: T2, Kv1.1 (Homo sapiens, UniProt Q09470)
T2 construct: expressed in transfected cells; host or cells: Chinese Hamster Ovary (CHO)

Kv1.2 = target: T3, Kv1.2 (Homo sapiens, UniProt P16389)
T3 construct: expressed in transfected cells; host or cells: Chinese Hamster Ovary (CHO)

Kv1.6 = target: T4, Kv1.6 (Homo sapiens, UniProt P17658)
T4 construct: expressed in transfected cells; host or cells: Chinese Hamster Ovary (CHO)

| Compound | IC50 [1] [nM] | Selectivity Kv1.1/Kv1.3 (Kv1.1) | Selectivity Kv1.2/Kv1.3 (Kv1.2) | Selectivity Kv1.6/Kv1.3 (Kv1.6) |
| --- | --- | --- | --- | --- |
| CC[C@H](C)[C@@H]1NC(=O)[C@H](CO)NC(=O)CNC(=O)[C@H](Cc2ccc(O)cc2)NC(=O)[C@H](C)NC(=O)[C@H](CCCCN)NC(=O)[C@H](CC(C)C)NC(=O)[C@@H]2CSSC[C@@H](C(=O)N[C@@H](Cc3ccc(O)cc3)C(=O)N3CCC[C@H]3C(=O)N[C@@H](CCCNC(=N)N)C(N)=O)NC(=O)[C@H](CCCCN)NC(=O)[C@@H]3CSSC[C@H](NC(=O)[C@H](CCC(=O)O)NC(=O)[C@H](C(C)C)NC(=O)[C@H](CO)NC(=O)[C@H](C)NC(=O)[C@H](CO)NC(=O)[C@@H](NC(=O)[C@H](CCCNC(=N)N)NC(=O)[C@H](CCSC)NC(=O)[C@H](CC(=O)O)NC(=O)[C@H](CCSC)NC(=O)[C@@H](N)CC(N)=O)CSSC[C@H](NC(=O)[C@H](CCCCN)NC(=O)CNC(=O)[C@H](Cc4ccccc4)NC1=O)C(=O)N[C@@H](CCSC)C(=O)N[C@@H](CC(N)=O)C(=O)N[C@@H](CCCCN)C(=O)N[C@@H](CCCCN)C(=O)N3)C(=O)N[C@@H](CCCCN)C(=O)N[C@@H](CCC(N)=O)C(=O)N[C@@H](CCCCN)C(=O)N2 [Compound 58] (H-NMDMRCSASVECKQKCLKAYGSIFGKCMNKKCKCYPR-NH2; disulfide 6-27, 12-32, 16-34) | ≤ 0.15 | at least 1000 | at least 50 | at least 400 |
| CCCC[C@@H]1NC(=O)[C@@H]2CSSC[C@H](NC(=O)[C@H](CCCNC(=N)N)NC(=O)[C@H](CCCC)NC(=O)[C@H](CC(=O)O)NC(=O)[C@H](CCCC)NC(=O)[C@@H](N)CC(N)=O)C(=O)N[C@@H](CO)C(=O)N[C@@H](C)C(=O)N[C@@H](CO)C(=O)N[C@@H](CCCCN)C(=O)N[C@@H](CCC(=O)O)C(=O)N[C@H]3CSSC[C@H](NC(=O)[C@H](CCCCN)NC(=O)[C@H](CCCCN)NC(=O)[C@H](CC(N)=O)NC1=O)C(=O)N[C@@H](CCCCN)C(=O)N[C@H](C(=O)N[C@@H](Cc1ccc(O)cc1)C(=O)N1CCC[C@H]1C(=O)N[C@@H](CCCNC(=N)N)C(N)=O)CSSC[C@H](NC(=O)[C@H](CCCCN)NC(=O)[C@H](CCC(N)=O)NC(=O)[C@H](CCCCN)NC3=O)C(=O)N[C@@H](CC(C)C)C(=O)N[C@@H](CCCCN)C(=O)N[C@@H](C)C(=O)N[C@@H]([C@@H](C)CC)C(=O)NCC(=O)N[C@@H](CO)C(=O)N[C@@H]([C@@H](C)CC)C(=O)N[C@@H](Cc1ccccc1)C(=O)NCC(=O)N[C@@H](CCCCN)C(=O)N2 [Compound 63] (H-N[Nle]D[Nle]RCSASKECKQKCLKAIGSIFGKC[Nle]NKKCKCYPR-NH2; disulfide 6-27, 12-32, 16-34) | ≤ 0.15 | at least 1000 | at least 50 | at least 400 |
| CCCC[C@@H]1NC(=O)[C@@H]2CSSC[C@H](NC(=O)[C@H](CCCCN)NC(=O)[C@H](CO)NC(C)=O)C(=O)N[C@@H](CO)C(=O)N[C@@H](C)C(=O)N[C@@H](CO)C(=O)N[C@@H](C(C)C)C(=O)N[C@@H](CCC(=O)O)C(=O)N[C@H]3CSSC[C@H](NC(=O)[C@H](CCCCN)NC(=O)[C@H](CCCCN)NC(=O)[C@H](CC(N)=O)NC1=O)C(=O)N[C@@H](CCCCN)C(=O)N[C@H](C(=O)N[C@@H](Cc1ccc(O)cc1)C(=O)N1CCC[C@H]1C(=O)N[C@@H](CCCNC(=N)N)C(N)=O)CSSC[C@H](NC(=O)[C@H](CCCCN)NC(=O)[C@H](CCC(N)=O)NC(=O)[C@H](CCCCN)NC3=O)C(=O)N[C@@H](CC(C)C)C(=O)N[C@@H](CCCCN)C(=O)N[C@@H](C)C(=O)N[C@@H]([C@@H](C)CC)C(=O)NCC(=O)N[C@@H](CO)C(=O)N[C@@H]([C@@H](C)CC)C(=O)N[C@@H](Cc1ccccc1)C(=O)NCC(=O)N[C@@H](CCCCN)C(=O)N2 [Compound 107] (Ac-SKCSASVECKQKCLKAIGSIFGKC[Nle]NKKCKCYPR-NH2; disulfide 3-24, 9-29, 13-31) | ≤ 0.15 | at least 1000 | at least 50 | at least 400 |
| CCCC[C@@H]1NC(=O)[C@@H]2CSSC[C@H](NC(=O)[C@H](CCCNC(=N)N)NC(=O)[C@H](CC(C)C)NC(C)=O)C(=O)N[C@@H](CO)C(=O)N[C@@H](C)C(=O)N[C@@H](CO)C(=O)N[C@@H](C(C)C)C(=O)N[C@@H](CCC(=O)O)C(=O)N[C@H]3CSSC[C@H](NC(=O)[C@H](CCCCN)NC(=O)[C@H](CCCCN)NC(=O)[C@H](CC(N)=O)NC1=O)C(=O)N[C@@H](CCCCN)C(=O)N[C@H](C(=O)N[C@@H](Cc1ccc(O)cc1)C(=O)N1CCC[C@H]1C(=O)N[C@@H](CCCNC(=N)N)C(N)=O)CSSC[C@H](NC(=O)[C@H](CCCCN)NC(=O)[C@H](CCC(N)=O)NC(=O)[C@H](CCCCN)NC3=O)C(=O)N[C@@H](CC(C)C)C(=O)N[C@@H](CCCCN)C(=O)N[C@@H](C)C(=O)N[C@@H]([C@@H](C)CC)C(=O)NCC(=O)N[C@@H](CO)C(=O)N[C@@H]([C@@H](C)CC)C(=O)N[C@@H](Cc1ccccc1)C(=O)NCC(=O)N[C@@H](CCCCN)C(=O)N2 [Compound 108] (Ac-LRCSASVECKQKCLKAIGSIFGKC[Nle]NKKCKCYPR-NH2; disulfide 3-24, 9-29, 13-31) | ≤ 0.15 | at least 1000 | at least 50 | at least 400 |
| H-NMDMRCSASVECKQKCLKAIGSIFGKCMNKKCKCYPRRRTA-NH2 (disulfide 6-27, 12-32, 16-34) [Compound 23] | ≤ 0.15 | at least 1000 | at least 50 | at least 400 |
